Test results taken from patent US20230192846A1.
These are yes or no findings as the source states them, for the method shown. Some entries that bind do so weakly or less than the wild type.

Protein sequences, listed by entry. Tags and fused reporters are not part of them. Lines headed by an entry give the natural chain unless they say otherwise; changes in a name come on top. Chains listed by the source or under a name are the forms on record and can include a tag or linker.
T327M (Q01974, form named): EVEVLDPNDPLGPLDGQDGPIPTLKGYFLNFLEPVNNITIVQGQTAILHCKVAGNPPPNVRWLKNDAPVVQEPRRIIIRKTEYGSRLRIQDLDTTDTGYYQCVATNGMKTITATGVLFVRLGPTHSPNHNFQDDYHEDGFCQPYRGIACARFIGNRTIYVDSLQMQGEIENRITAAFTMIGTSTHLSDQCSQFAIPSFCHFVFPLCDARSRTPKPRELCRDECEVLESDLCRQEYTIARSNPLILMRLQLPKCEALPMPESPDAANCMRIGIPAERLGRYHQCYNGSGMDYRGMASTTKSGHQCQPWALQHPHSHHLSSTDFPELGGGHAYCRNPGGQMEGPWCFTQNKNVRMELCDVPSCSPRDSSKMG
UniProt Q9Z138: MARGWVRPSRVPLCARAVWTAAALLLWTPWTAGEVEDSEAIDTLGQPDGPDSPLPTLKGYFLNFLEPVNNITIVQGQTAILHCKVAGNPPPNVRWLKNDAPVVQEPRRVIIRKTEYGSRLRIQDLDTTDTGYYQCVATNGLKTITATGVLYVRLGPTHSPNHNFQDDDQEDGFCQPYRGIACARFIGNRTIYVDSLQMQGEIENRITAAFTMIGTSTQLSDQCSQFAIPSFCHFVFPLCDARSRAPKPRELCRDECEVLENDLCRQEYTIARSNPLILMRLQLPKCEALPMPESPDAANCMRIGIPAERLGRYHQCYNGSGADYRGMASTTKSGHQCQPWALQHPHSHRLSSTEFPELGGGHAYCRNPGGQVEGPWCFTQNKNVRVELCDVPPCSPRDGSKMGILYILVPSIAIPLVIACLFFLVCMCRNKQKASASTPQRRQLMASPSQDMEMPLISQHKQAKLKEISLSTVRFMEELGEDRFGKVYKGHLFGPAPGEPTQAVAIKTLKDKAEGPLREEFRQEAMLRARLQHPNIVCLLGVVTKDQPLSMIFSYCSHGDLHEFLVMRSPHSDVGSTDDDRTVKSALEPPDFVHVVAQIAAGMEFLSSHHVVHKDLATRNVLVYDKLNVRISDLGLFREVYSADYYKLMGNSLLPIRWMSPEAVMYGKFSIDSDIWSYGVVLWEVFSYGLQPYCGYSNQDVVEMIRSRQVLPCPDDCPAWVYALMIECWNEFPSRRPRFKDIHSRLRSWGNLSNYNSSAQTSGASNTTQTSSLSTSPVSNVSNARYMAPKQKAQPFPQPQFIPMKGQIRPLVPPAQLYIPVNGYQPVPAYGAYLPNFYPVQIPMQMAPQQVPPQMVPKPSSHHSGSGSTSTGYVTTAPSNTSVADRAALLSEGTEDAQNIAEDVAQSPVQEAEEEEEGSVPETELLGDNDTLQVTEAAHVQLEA

Legend:
Experiment in all cases: dot blot; recombinant protein on nylon membrane, probed with the mAb, HRP anti-mouse IgG
[1] = target: T327M (human) (UniProt Q01974)
[2] = target: h1-111 aa (human;mouse) (UniProt Q01974+Q9Z138)
[3] = target: h1-160 aa (human;mouse) (UniProt Q01974+Q9Z138)
[4] = target: recombinant human ROR2 with aspartic acid 354 replaced by the glutamic acid of mouse ROR2 (human) (UniProt Q01974)
[5] = target: recombinant human ROR2 with histidine 349 replaced by the arginine of mouse ROR2 (human) (UniProt Q01974)
[6] = target: hKringle (mouse;human) (UniProt Q9Z138+Q01974)
[7] = target: recombinant human ROR2 with methionine 386 replaced by the valine of mouse ROR2 (human) (UniProt Q01974)

| Binder | binding [1] | binding [2] | binding [3] | binding [4] | binding [5] | binding [6] | binding [7] |
| --- | --- | --- | --- | --- | --- | --- | --- |
| 4G9 anti-human ROR2 monoclonal antibody (antibody, IgG2a, V domains shown) VH: QVQLQQSGAELVRPGASVKLSCKALGYTFTDYEMHWVKQTPVHGLEWIGAIHPGSGGTAYNQKFKGKATLTADKSSSTAYMELSRLTSEDSAVYYCTRRRPRFYGMDYWGQGTSVTVSS VL: DIVMTQAAPSVPVTPGESVSISCRSSKSLLHSNGNTYLYWFLQRPGQSPQLLIYRMSNLASGVPDRFSGSGSGTAFTLRISRVEAEDVGVYYCMQHLEYPLTVGAGTKLELK | binds | binds | binds | binds | binds |  |  |
| 5C11 anti-human ROR2 monoclonal antibody (antibody, IgG1, V domains shown) VH: EVQLVESGGDLVKPGGSLKLSCAASGFTFSNYGMSWVRQTPDKRLEWVATISSGGGSTYYPDSVKGRFTISRDNAKNSLYLQMSSLKSEDTAMYYCARHPYDYGYYFDYWGQGTTLTVSS VL: DILLTQSPDILSVSPGERVSFSCRASQSIGTSIHWYQQRTNGSPRLLIKYASESISGIPSRFSGSGSGTDFTLSINSVESEDIADYYCQQSDSWPFPFGSGTKLEKK | binds |  |  |  |  | binds |  |
| 5G3 anti-human ROR2 monoclonal antibody (antibody, IgG2a, V domains shown) VH: EVQLVESGGGLVQPKGSLKLSCAASGFTFNTYAMNWVRQAPGKGLEWVARIRSKSNNYATYYADSVKDRFTISRDDSQSMLHLQMNNLKTEDTAMYYCVRHGSSLYYAMDYWGQGTSVTVSS VL: DIQMTQSPSSLSASLGERVSLTCRASQEISGYLGWLQQKPDGTIKRLIYAASTLDSGVPKRFSGSRSGSAYSLTISSLESEDFADYYCLQYASYPYTFGGGTKLEIK |  | binds | binds |  |  |  |  |
| 6E6 anti-human ROR2 monoclonal antibody (antibody, IgG1, V domains shown) VH: EVQLVESGGDLVKPGGSLKLSCAASGFTFSNYGMSWVRQTPDKRLEWVATISSGGGYTHYVDSVKGRFTISRDNANHILYLQMSSLNSEDTAMYYCARHPRDFSYAMDYWGQGTSVTVSS VL: DIVMTQSHKFMSTSIGDRVSITCKASQDVGHYVAWYQQKPGQSPKLLIYWASTRHTGVPDRFTGSGSGTDFTLTISNVQSEDLADYFCQQYNIYPWTFGGGSKLAIK | binds |  |  |  |  |  | binds |
